Reference: the supplement of paper PMC10470496
Counter-ions that a name gives are not always drawn. The list shows a part of the results. Many values rest on one well or one pass, so single values are uncertain.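 The three strains are clinical Candida auris isolates from the CDC resistance isolate bank, from clades III, IV and I, grown in RPMI-1640 at 35°C. Growth is background-corrected OD600 relative to vehicle-only wells on the same plate; a hit meant over 50% inhibition in at least two strains plus a plate-corrected B-score above 0.1.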

Columns and labels:
Experiment in all cases: growth relative to vehicle control (OD600 ratio) (fraction); higher = less inhibition
Conditions in all cases: 24 h
C. auris AR-384 = tested on: C. auris AR-384
C. auris AR-386 = tested on: C. auris AR-386
C. auris AR-387 = tested on: C. auris AR-387

COc1cc2c(cc1OC)[C@@]13CCN4CC5=CCO[C@H]6CC(=O)N2[C@H]1[C@H]6[C@H]5C[C@H]43 [Brucine sulfate salt hydrate]
growth (C. auris AR-384; 1 µM): 1.27
growth (C. auris AR-384; 10 µM): 1.12
growth (C. auris AR-386; 1 µM): 1.34
growth (C. auris AR-386; 10 µM): 1.21
growth (C. auris AR-387; 1 µM): 1.2
growth (C. auris AR-387; 10 µM): 1.18

O.O.O.O=C([O-])C1[O][Sb]2[O]C(=O)C([O]2)C(C(=O)[O-])[O][Sb]2[O]C(=O)C1[O]2.[K+].[K+] (stereo not given) [Antimonyl potassium tartrate trihydrate]
growth (C. auris AR-384; 1 µM): 1.39
growth (C. auris AR-384; 10 µM): 0.92
growth (C. auris AR-386; 1 µM): 1.19
growth (C. auris AR-386; 10 µM): 1.32
growth (C. auris AR-387; 1 µM): 1.07
growth (C. auris AR-387; 10 µM): 1.1

C[C@@H]1[C@H](O)[C@@H](C)/C=C/C=C/CC/C=C/C=C/C=C/C=C/[C@H](O[C@H]2O[C@@H](C)[C@H](O)[C@@H](N)[C@H]2O)C[C@@H]2O[C@](O)(C[C@@H](O)[C@H](O)CC[C@@H](O)C[C@@H](O)C[C@@H](O)CC(=O)O[C@H]1C)C[C@H](O)[C@H]2C(=O)O [Nystatin (Fungicidin)]
growth (C. auris AR-384; 1 µM): 0.94
growth (C. auris AR-384; 10 µM): 0.11
growth (C. auris AR-386; 1 µM): 1.27
growth (C. auris AR-386; 10 µM): 0.42
growth (C. auris AR-387; 1 µM): 0.89
growth (C. auris AR-387; 10 µM): 0.03

O=c1[nH]c2ccccc2n1C1CCN(CCCC(c2ccc(F)cc2)c2ccc(F)cc2)CC1 [Pimozide]
growth (C. auris AR-384; 1 µM): 1.32
growth (C. auris AR-384; 10 µM): 1.44
growth (C. auris AR-386; 1 µM): 1.43
growth (C. auris AR-386; 10 µM): 1.45
growth (C. auris AR-387; 1 µM): 1.37
growth (C. auris AR-387; 10 µM): 1.47

CN1[C@@H]2CC[C@H]1C[C@@H](OC(=O)[C@H](CO)c1ccccc1)C2 [Hyoscyamine]
growth (C. auris AR-384; 1 µM): 0.93
growth (C. auris AR-384; 10 µM): 0.74
growth (C. auris AR-386; 1 µM): 1.12
growth (C. auris AR-386; 10 µM): 0.87
growth (C. auris AR-387; 1 µM): 0.66
growth (C. auris AR-387; 10 µM): 0.96
